Results published in publication PMC9491610.
Residue numbers refer to the chain shown, from its start. Results are given in words; binding and its absence hold for the method and conditions named. Binding seen in cells or lysates may run through a third protein. Some entries that bind do so weakly or less than the wild type. For part of these data: Where a sequence is shown, tags or fusion partners need not be part of it.

How the values were obtained:
Assay in all cases: co-IP; Stu2-HA precipitated with anti-HA magnetic beads from 90 mg cryo-milled yeast extract in 1x PBS pH 7.4 with 0.1% Tween; precipitate blotted with anti γ-tubulin (anti-Tub4)
[1] = molecular target: T1, Stu2-HA (wild-type Stu2, 3xHA tagged) (S. cerevisiae) (UniProt P46675)
T1 sequence: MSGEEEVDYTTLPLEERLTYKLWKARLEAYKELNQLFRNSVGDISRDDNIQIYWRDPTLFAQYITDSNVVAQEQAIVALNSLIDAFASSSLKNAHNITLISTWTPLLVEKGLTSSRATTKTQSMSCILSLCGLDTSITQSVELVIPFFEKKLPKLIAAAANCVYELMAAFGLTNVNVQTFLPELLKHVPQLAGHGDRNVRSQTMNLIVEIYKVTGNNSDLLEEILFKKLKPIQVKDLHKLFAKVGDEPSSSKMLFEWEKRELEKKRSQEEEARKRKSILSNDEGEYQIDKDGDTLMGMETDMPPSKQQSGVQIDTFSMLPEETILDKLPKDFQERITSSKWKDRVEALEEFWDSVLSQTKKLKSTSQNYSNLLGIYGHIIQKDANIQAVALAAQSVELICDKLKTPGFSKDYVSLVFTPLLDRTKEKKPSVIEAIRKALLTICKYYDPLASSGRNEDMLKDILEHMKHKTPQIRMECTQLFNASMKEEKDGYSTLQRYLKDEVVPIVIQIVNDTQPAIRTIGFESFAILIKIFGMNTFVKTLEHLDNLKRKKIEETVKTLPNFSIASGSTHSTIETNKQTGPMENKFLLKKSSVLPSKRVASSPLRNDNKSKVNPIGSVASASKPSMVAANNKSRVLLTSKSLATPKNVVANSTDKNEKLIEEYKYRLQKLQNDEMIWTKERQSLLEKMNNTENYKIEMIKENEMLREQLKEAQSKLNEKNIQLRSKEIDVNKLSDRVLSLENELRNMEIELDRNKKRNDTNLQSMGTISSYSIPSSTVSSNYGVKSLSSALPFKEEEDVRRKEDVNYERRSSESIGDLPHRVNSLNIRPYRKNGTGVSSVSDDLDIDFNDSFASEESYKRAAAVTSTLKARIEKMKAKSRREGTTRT

[2] = molecular target: T2, Stu2-K252,469,870Q-3xHA (S. cerevisiae) (UniProt P46675)
T2 sequence: T1 sequence with K252Q, K469Q, K870Q

[3] = molecular target: T3, Stu2-K252,469Q-3xHA (S. cerevisiae) (UniProt P46675)
T3 sequence: T1 sequence with K252Q, K469Q

binding [1]: binds
binding [2]: binds
binding [3]: binds
B1: γ-tubulin (Tub4) (protein, UniProt P53378 1-473)
chain: MGGEIITLQAGQCGNHVGKFLWSQLAKEHAIGTDGLSQLPDSSTERDDDTKPFFRENSRNKFTPRAIMMDSEPSVIADVENTFRGFFDPRNTWVASDGASAGNSWANGYDIGTRNQDDILNKIDKEIDSTDNFEGFQLLHSVAGGTGSGLGSNLLEALCDRYPKKILTTYSVFPARSSEVVVQSYNTILALRRLIEDSDATVVFDNASLLNISGKVFRNPNIDLQHTNQLISTIISSVTNSIRFPSYMYSSMSSIYSTLIPSPELHFLSPSFTPFTSDYIHDDIAHKGHSSYDVMLDLLDPSNSLVSTAMNNPTYFNVYNTIIGNVEPRQISRAMTKLQQRIKFPSWSSSAMHVNIGRRSPYLPLQPNENEVSGMMLSNMSTVVNVFENACNTFDKVFAKGAFLNNYNVGDLFQSMQNVQDEFAESREVVQSLMEDYVAAEQDSYLDDVLVDDENMVGELEEDLDADGDHKLV
